{
  "sequences": {"note": "Sequences of proteins named here, by UniProt entry; tags and fusion partners are left off.", "UniProt O15392": "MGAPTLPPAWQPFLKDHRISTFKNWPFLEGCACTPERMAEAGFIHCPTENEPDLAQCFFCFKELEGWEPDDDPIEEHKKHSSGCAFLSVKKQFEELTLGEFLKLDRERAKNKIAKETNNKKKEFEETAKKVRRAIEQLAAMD"},
  "source": "patent US20030087319A1",
  "target": "T1, recombinant active caspase-3 (PharMingen) (UniProt P42574)",
  "T1 sequence (looked up)": "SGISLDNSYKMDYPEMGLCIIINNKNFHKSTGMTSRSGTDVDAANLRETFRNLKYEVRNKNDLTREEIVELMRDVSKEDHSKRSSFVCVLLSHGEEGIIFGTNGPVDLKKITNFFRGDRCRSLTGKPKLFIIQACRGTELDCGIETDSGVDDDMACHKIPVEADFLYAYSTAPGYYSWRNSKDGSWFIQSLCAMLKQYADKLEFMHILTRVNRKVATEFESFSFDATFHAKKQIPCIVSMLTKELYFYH",
  "experiment": "in vitro binding, 35S-labeled survivin with recombinant active caspase-3, immunoprecipitation with caspase-specific antibody, SDS-PAGE, autoradiography",
  "note": "These are yes or no findings as the source states them, for the method shown. Some results given as binding are weak or reduced against the parent protein; the word gives no strength.",
  "data": [
    {"substance": "survivin (35[S]-methionine-labeled, in vitro translated) (from UniProt O15392 1-142)", "values": [
      {"measurement": "binding", "result": "binds"}
    ]}
  ]
}
